Results are given in words; binding and its absence hold for the method and conditions named. Binding seen in cells or lysates may run through a third protein. Some binding calls cover weakened binding; strength is not graded here. For part of these data: Sequences can lack the tags named with a protein.
How the values were obtained:
FLAG-ALK5 (human) = target: T1, FLAG-ALK5 (human) (UniProt P36897); assay: co-IP; HEK293 transiently co-transfected with FLAG-tagged bait and HA-USP11 (with or without HA-SMAD7 for ALK5); FLAG IPs (2 h, 4°C, washes with 0.5 M NaCl) immunoblotted with HA antibody
T1 sequence: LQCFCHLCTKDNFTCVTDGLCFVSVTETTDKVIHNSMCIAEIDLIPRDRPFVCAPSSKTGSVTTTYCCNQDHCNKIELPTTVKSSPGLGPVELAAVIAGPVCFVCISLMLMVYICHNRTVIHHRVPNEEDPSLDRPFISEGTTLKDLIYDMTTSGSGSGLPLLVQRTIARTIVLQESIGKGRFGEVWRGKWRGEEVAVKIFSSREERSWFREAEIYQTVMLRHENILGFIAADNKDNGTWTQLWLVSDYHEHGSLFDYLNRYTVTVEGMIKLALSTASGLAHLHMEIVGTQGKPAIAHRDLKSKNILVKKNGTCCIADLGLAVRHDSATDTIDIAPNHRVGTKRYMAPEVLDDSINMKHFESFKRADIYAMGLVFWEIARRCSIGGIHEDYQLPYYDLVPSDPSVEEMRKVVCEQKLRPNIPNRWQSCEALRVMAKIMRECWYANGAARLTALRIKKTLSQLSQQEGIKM

By UniProt entry, the sequences of proteins in these tests, tags left out.
UniProt O15105: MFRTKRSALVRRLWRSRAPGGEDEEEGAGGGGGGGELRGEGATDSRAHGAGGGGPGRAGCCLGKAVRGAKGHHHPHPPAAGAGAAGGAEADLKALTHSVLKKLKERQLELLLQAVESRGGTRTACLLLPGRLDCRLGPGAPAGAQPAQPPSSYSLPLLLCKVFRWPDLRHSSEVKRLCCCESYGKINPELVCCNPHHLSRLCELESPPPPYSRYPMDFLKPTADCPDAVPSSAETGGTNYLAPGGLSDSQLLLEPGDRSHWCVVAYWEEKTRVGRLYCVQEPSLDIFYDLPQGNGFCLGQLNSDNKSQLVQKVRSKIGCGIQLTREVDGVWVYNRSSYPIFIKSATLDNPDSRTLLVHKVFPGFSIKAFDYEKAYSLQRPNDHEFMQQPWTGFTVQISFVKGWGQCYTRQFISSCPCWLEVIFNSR
UniProt P51784: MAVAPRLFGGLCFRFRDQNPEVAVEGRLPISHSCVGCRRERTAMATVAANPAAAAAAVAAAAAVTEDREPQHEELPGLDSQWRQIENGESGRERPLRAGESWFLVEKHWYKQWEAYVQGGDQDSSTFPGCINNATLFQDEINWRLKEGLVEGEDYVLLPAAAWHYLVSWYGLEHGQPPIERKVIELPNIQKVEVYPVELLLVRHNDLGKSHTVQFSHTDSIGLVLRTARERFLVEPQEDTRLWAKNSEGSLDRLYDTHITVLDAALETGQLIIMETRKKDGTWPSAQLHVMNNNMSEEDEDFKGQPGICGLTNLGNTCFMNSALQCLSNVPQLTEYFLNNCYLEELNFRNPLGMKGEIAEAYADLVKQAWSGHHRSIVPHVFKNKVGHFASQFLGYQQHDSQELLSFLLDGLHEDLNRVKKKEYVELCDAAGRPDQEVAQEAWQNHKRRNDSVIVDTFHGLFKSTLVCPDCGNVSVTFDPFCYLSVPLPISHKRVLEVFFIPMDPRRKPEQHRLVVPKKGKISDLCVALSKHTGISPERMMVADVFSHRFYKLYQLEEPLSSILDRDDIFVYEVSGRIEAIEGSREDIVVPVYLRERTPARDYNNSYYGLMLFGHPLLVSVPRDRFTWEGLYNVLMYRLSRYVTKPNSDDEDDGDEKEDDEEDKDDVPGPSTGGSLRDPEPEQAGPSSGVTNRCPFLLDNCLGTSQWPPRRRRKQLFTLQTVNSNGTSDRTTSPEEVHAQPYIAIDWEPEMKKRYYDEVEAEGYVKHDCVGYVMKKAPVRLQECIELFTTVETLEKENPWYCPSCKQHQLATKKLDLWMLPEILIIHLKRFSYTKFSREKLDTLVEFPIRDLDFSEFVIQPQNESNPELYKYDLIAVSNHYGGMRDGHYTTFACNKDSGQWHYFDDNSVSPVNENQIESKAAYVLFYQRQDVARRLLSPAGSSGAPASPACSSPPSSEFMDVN

FLAG–SMAD7 (human) [1] = target: FLAG–SMAD7 (human) (UniProt O15105); assay: as above
3XFLAG-ALK5 (human) = target: T2, 3XFLAG-ALK5 (human) (UniProt P36897); assay: co-IP; HEK293 transiently transfected with FLAG-tagged bait only (with or without TGFβ 50 pM 45 min; with or without HA-SMAD7 for ALK5); FLAG IPs immunoblotted for endogenous USP11
T2 sequence: T1 sequence

FLAG–SMAD7 (human) [2] = target: FLAG–SMAD7 (human) (UniProt O15105); assay: as above
[3] = target: T3, endogenous ALK5 (human (endogenous in HEK293)) (UniProt P36897); assay: co-IP; endogenous IP: 5 mg HEK293 lysate (vehicle or TGFβ 50 pM 45 min), SMAD7 or ALK5 antibody covalently bound to protein G Dynabeads, 30 min at room temperature, PBS washes; blot for endogenous USP11; pre-immune IgG as control
T3 sequence: T1 sequence

[4] = target: endogenous SMAD7 (human (endogenous in HEK293 and HaCaT)) (UniProt O15105); assay: as above

Measured: binding

HA-USP11 (from UniProt P51784 1-963) (enzyme)
binds: FLAG-ALK5 (human) | FLAG–SMAD7 (human) [1]

endogenous USP11 (from UniProt P51784 1-963) (enzyme)
binds: 3XFLAG-ALK5 (human) | FLAG–SMAD7 (human) [2] | [3] | [4]
